Reference: publication PMC2868043, “The Yeast Cell Fusion Protein Prm1p Requires Covalent Dimerization to Promote Membrane Fusion” (PLoS ONE, 2010)
Residue numbers refer to the chain shown, from its start. Names may count otherwise. No constants are given. Whether binding was seen depends on the method and setting. For part of these data: Binding seen in cells or lysates may run through a third protein. Some binding calls cover weakened binding; strength is not graded here. Tags and fused reporters may be left off the sequences shown. Values belong to the binder of their own block, whether it stands above or below them.

Key:
[1] = target: prm1-C436S-GFP (S. cerevisiae) (UniProt P53835); assay: non-reducing SDS-PAGE and Western blot; whole cell lysate, reducing agent omitted from the sample buffer; cells induced with 10 µg/ml α-factor for 90 min (GFP alleles, anti-GFP blot) or with galactose (HA-PRM1, anti-HA blot); shows only SDS-resistant covalent dimers
[2] = target: prm1-E104L-GFP (S. cerevisiae) (UniProt P53835); assay: as above
[3] = target: prm1-C55S-GFP (S. cerevisiae) (UniProt P53835); assay: as above
[4] = target: prm1-C6S-GFP (S. cerevisiae) (UniProt P53835); assay: as above
[5] = target: prm1-C438S-GFP (S. cerevisiae) (UniProt P53835); assay: as above
[6] = target: prm1-C302S-GFP (S. cerevisiae) (UniProt P53835); assay: as above
[7] = target: prm1-C277S-GFP (S. cerevisiae) (UniProt P53835); assay: as above
[8] = target: T1, prm1-D112L-myc (S. cerevisiae) (UniProt P53835); assay: co-IP; tagged PRM1 alleles co-expressed in the same cells, mated on YPD at 30°C for 3 h; membranes solubilised in 1% Triton X-100 (50 mM HEPES, 100 mM KOAc, 2 mM Mg(OAc)2, 1 mM EDTA); α-myc (9E10) agarose, 2 h at 4°C; eluted with 2% SDS; α-myc and α-GFP blots
T1 sequence: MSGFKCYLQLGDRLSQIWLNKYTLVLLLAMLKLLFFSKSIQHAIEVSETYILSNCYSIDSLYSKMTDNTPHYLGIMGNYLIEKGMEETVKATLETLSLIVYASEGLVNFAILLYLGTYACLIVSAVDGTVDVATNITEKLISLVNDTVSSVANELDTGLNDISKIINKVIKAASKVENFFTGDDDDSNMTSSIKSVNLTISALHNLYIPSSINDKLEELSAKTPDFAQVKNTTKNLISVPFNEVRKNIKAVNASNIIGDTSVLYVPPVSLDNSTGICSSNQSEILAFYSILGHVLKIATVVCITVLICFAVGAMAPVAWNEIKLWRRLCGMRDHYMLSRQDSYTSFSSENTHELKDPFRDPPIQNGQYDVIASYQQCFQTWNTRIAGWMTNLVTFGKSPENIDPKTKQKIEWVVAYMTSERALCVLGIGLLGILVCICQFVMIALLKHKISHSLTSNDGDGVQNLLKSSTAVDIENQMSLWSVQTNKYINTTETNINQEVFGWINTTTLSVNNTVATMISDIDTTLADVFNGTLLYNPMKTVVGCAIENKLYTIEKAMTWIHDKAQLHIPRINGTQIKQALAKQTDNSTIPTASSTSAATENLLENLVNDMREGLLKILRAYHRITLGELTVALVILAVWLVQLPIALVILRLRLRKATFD

Prm1-myc (S. cerevisiae) [9] = target: T2, Prm1-myc (S. cerevisiae) (UniProt P53835); assay: as above
T2 sequence: T1 sequence with L112D

Prm1-myc (S. cerevisiae) [10] = target: T2, Prm1-myc (S. cerevisiae); assay: condition: only in SDS (non-reducing SDS-PAGE, covalent dimers only); non-reducing SDS-PAGE and Western blot; blots of input and eluate of the α-myc immunoprecipitation from cells co-expressing PRM1-myc and a GFP-tagged mutant allele (Figure 4B); shows only covalent dimers
Prm1-myc (S. cerevisiae) [11] = target: T2, Prm1-myc (S. cerevisiae); assay: co-IP; as a4, but Prm1-myc and Prm1-GFP expressed in opposite mating types; about half of the input cells had formed zygotes
Prm1-GFP (S. cerevisiae) = Prm1-GFP (S. cerevisiae) (UniProt P53835); assay: condition: only reduced with 100 mM DTT before SDS-PAGE; reducing SDS-PAGE and Western blot; whole cell lysate of α-factor induced PRM1-GFP cells, samples reduced with 100 mM DTT before electrophoresis

B3: prm1-C55S-GFP (protein, UniProt P53835 1-661)
chain: T1 sequence with C55S, L112D
binding [3]: binds

B4: prm1-C6S-GFP (protein, UniProt P53835 1-661)
chain: T1 sequence with C6S, L112D
binding [4]: binds

B6: prm1-C302S-GFP (protein, UniProt P53835 1-661)
chain: T1 sequence with L112D, C302S
binding [6]: binds

B7: prm1-C277S-GFP (protein, UniProt P53835 1-661)
chain: T1 sequence with L112D, C277S
binding [7]: binds

B9: prm1-C120,277,545S-GFP (protein, UniProt P53835 1-661)
chain: T1 sequence with L112D, C120S, C277S, C545S
binding (Prm1-myc (S. cerevisiae) [9]): binds
binding (Prm1-myc (S. cerevisiae) [10]): no binding

B10: Prm1-GFP (natural protein, S. cerevisiae, UniProt P53835 1-661, looked up)
chain: T1 sequence with L112D
notes: Prm1p, mating-specific multipass membrane protein of S. cerevisiae; monomer 73 kD; Glycosylated (sugar modifications); Forms a disulfide-linked homodimer; also called Prm1p; source: S. cerevisiae (W303 derivatives), PRM1 promoter, induced with α-factor or by mating; in whole cell lysate or Triton X-100 solubilised membranes; not shown: GFP, C-terminal, kept
binding (Prm1-myc (S. cerevisiae) [11]): binds weakly
binding (Prm1-GFP (S. cerevisiae)): no binding

Results, then the binder that gave them:

binding [1]: binds
B1: prm1-C436S-GFP (protein, UniProt P53835 1-661)
chain: T1 sequence with L112D, C436S

binding [2]: binds
B2: prm1-E104L-GFP (protein, UniProt P53835 1-661)
chain: T1 sequence with E104L, L112D

binding [5]: binds
B5: prm1-C438S-GFP (protein, UniProt P53835 1-661)
chain: T1 sequence with L112D, C438S

binding [8]: binds weakly
B8: prm1-D112L-GFP (protein, UniProt P53835 1-661)
chain: T1 sequence
